{"source": "patent US7601526B2", "about": "(priority 2004, dated 2009)", "origin": "cited, not measured here", "system": "F. tularensis", "note": "At least one structure is not confirmed: it was looked up by name or label, or the drawing left a doubt.", "data": [{"smiles": "CN(C)[C@@H]1C(O)=C(C(N)=O)C(=O)[C@@]2(O)C(O)=C3C(=O)c4c(O)cccc4[C@@](C)(O)[C@H]3C[C@@H]12", "note": "[Tetracycline]", "values": [{"measurement": "type of antibacterial action against F. tularensis", "value": "bacteriostatic"}]}]}
